Assay results published in PubChem BioAssay AID445 (National Center for Advancing Translational Sciences (NCATS), 2006).
Some of the results follow. Further columns of the screen follow, without active or inactive calls. The list favours compounds with an active or inconclusive main result. Words in brackets tell the shape of the fitted curve; partial curves, single points and poor fits give uncertain potencies.

Experiment: IkB Signaling
Conditions: ABC-DLBCL IkBa-CBG/CBR dual luciferase ratio (green luciferase fused to IkBa over red control in OCI-Ly3 lymphoma cells), 4 h; measured here: control luc red channel unless noted
Summary of the method: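 Luminescence ratio of IκBα-fused green versus native red beetle luciferase in OCI-Ly3 cells, 4 h post-doxycycline with compound; red signal alone, scaled from basal (0%) to zero light (-100%), flagged nonspecific or cytotoxic effects.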

Row | Compound | AC50
1 | COc1cccc(C(=O)Nc2ccc(-c3nc4ccc(C)cc4s3)cc2)c1OC | 25.1 µM [rising, single point]
2 | CC(=O)C1=C(c2ccc(C)cc2)N(C(C)=O)n2c(nnc2-c2ccccc2)S1 | 12.6 µM [falling, single point]
3 | O=C(Nc1ccc(C(F)(F)F)cc1)C1CCN(c2cnccn2)CC1 | 15.8 µM [falling, single point]
4 | COc1cccc(Cn2c(SCC(=O)N(C)c3ccccc3)nc3ccccc32)c1 | 31.6 µM [falling, partial curve]
5 | COc1cccc2cc(-c3csc(-c4ccc(Cl)cc4)n3)c(=O)oc12 | 0.00631 µM [rising, full curve, poor fit]
6 | O=C(CN1CCC(C(=O)c2ccc(F)cc2)CC1)Nc1ccccc1 | 12.6 µM [falling, partial curve]
7 | CCc1ccc(-n2c(SCc3ccccc3C)nc3[nH]ncc3c2=O)cc1 | 20 µM [falling, partial curve]
8 | COC(=O)c1ccc(Cn2c(SCc3ccccc3)nc3ccncc32)cc1 | 15.8 µM [falling, single point]
9 | Cc1ccc(-c2nc(CS(=O)(=O)CC(=O)NCc3ccc(Cl)cc3)c(C)o2)cc1 | 0.631 µM [falling, partial curve, poor fit]
10 | CCc1ccc(-n2nc(C)c3c(C(=O)Nc4cc(C)c(Cl)cc4OC)cc(C)nc32)cc1 | 0.00631 µM [falling, full curve, poor fit]
11 | CCCN(C(=O)COc1cc(=O)n(CC)c2ccccc12)c1ccc(C(C)C)cc1 | 25.1 µM [falling, single point]
12 | O=C(Cn1c(=O)n(Cc2ccco2)c(=O)c2ccccc21)Nc1cccc(Cl)c1 | 10 µM [falling, partial curve]
13 | CCOC(=O)c1c(NC(=O)c2cc3nc(-c4ccccc4)cc(C(F)(F)F)n3n2)sc2c1CCC(C)C2 (centres undefined) | 6.31 µM [rising, partial curve]
14 | Cc1cc(C(=O)Nc2cccc(F)c2)c2c(C)nn(-c3cccc(Cl)c3C)c2n1 | 3.98 µM [falling, full curve, poor fit]
15 | Cc1cc2cc(CCNC(=O)c3ccc(S(=O)(=O)N4CCOCC4)cc3)c(=O)[nH]c2cc1C | 3.98 µM [falling, partial curve]
16 | COc1ccc(CCNC(=O)c2nc(SCc3ccc(C)cc3)ncc2Cl)cc1OC | 0.251 µM [falling, full curve]
18 | CN(C)c1ccc(C(=O)Nc2cccc(-c3nc4cccnc4s3)c2)cc1 | 39.8 µM [falling, single point]
19 | Cc1cc(O)c(-c2cc(C(=O)Nc3ccc(S(=O)(=O)N4CCOCC4)cc3)[nH]n2)cc1C | 3.98 µM [falling, full curve]
20 | CCc1c(C)sc2c1CCN(C(=O)Nc1cc(Cl)c(OC)cc1OC)C2c1ccccc1 (centres undefined) | 2.51 µM [falling, full curve]

Two neighbouring entries out of the list so far:
Row | Compound | AC50
4 | COc1cccc(Cn2c(SCC(=O)N(C)c3ccccc3)nc3ccccc32)c1 | 31.6 µM [falling, partial curve]
5 | COc1cccc2cc(-c3csc(-c4ccc(Cl)cc4)n3)c(=O)oc12 | 0.00631 µM [rising, full curve, poor fit]

Next records.

Row | Compound | AC50
21 | CCC(=O)N1CCc2cc(CNS(=O)(=O)c3ccc(NC(=O)CC(C)C)cc3)ccc21 | 3.16 µM [falling, partial curve, poor fit]
22 | COc1ccc2c(c1)CC(C(=O)NCCCN1CCN(c3ccccc3F)CC1)CO2 (centres undefined) | 10 µM [falling, partial curve]
23 | CCn1c(C)c(C)c2cc(C(=O)NCc3ccc(OC)cc3OC)ccc21 | 39.8 µM [falling, single point]
24 | Cc1ccc(-c2nnc(Nc3ccc(OCC(N)=O)cc3)c3ccccc23)cc1S(=O)(=O)N(C)C | 31.6 µM [falling, single point]
25 | CC(C)(C)c1ccc(C2=NC(C)(C)N(CC(=O)Nc3ccc(F)c(F)c3)C2=O)cc1 | 10 µM [falling, partial curve]
26 | Cc1cc(C)cc(NC(=O)Nc2ccccc2OCc2cc(=O)n3ccccc3n2)c1 | 3.98 µM [falling, full curve]
27 | COc1ccc(-n2ccn(Cc3ccccc3C)c(=O)c2=O)cc1 | 39.8 µM [falling, single point]
28 | CCOc1ccc(N(C(C)C(=O)NCCSc2ccc(C)cc2)S(C)(=O)=O)cc1 (centres undefined) | 31.6 µM [falling, single point]
29 | COc1cccc(C(c2sc3nc(-c4ccco4)nn3c2O)N2CCN(c3ccccc3F)CC2)c1 (centres undefined) | 20 µM [falling, partial curve, poor fit]
30 | Cc1cc(C)cc(NC(=O)C(=O)NCC(c2cccnc2)N2CCN(c3ccccc3)CC2)c1 (centres undefined) | 25.1 µM [falling, single point]
31 | COc1cccc(N2CCN(C(=O)c3ccc4nc(N5CCCCC5)sc4c3)CC2)c1 | 12.6 µM [falling, partial curve]
32 | CN1CCN(C(c2cccnc2)c2ccc3cccnc3c2O)CC1 (centres undefined) | 25.1 µM [rising, partial curve] [measured here: IkB-luc green channel]
33 | O=C1CN(C(=O)Nc2ccccc2Cl)C(c2ccccc2)c2c(sc3c2CCCC3)N1 (centres undefined) | 15.8 µM [falling, partial curve]
34 | COc1ccc(-c2cc(C(=O)NCCc3ccc(OC)c(OC)c3)c3ccccc3n2)cc1 | 39.8 µM [falling, single point]
35 | CCOc1ccccc1N1CC(O)=C(c2nc3ccccc3s2)C1=N | 15.8 µM [falling, partial curve]
36 | COc1ccc(NC(=O)C(C)Sc2cc(-c3ccccc3)nc(C)n2)cc1Cl (centres undefined) | 7.94 µM [falling, partial curve]
37 | COc1ccccc1NC(=O)CCn1cnc2onc(-c3ccc(F)cc3)c2c1=O | 5.01 µM [rising, single point]
38 | CCCNC(=O)C1CCN(Cc2cc3ccccc3n2Cc2ccccc2)CC1 | 31.6 µM [falling, single point]
39 | O=C1c2nc3ccccn3c2C(=O)N1Cc1ccccc1 | 1.26 µM [falling, full curve]
